# Results published in the supplement of paper PMC8728848.
# The list shows a part of the results.
# How the values were obtained:
# Test in all cases: glycan array binding signal (z-score within array); higher = stronger binding
# Conditions in all cases: glycan notation: IUPAC condensed, linker removed
# Gal(a1-3)Gal(b1-4)GlcNAc = molecular target: Gal(a1-3)Gal(b1-4)GlcNAc
# Outline: (§1)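 Arrays were curated from the Consortium for Functional Glycomics database, 3228 in total, and kept only where the protein sequence was available. Binding is expressed as a within-array Z-score. This score was averaged across arrays of the same protein sequence at different concentrations or buffers and across linkers, and negative values can be read as non-binding.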
# [1] = molecular target: Gal(a1-3)Gal(b1-4)GlcNAc(b1-2)Man
# Outline: as §1
# [2] = molecular target: Gal(a1-3)Gal(b1-4)GlcNAc(b1-2)Man(a1-3)[Gal(a1-3)Gal(b1-4)GlcNAc(b1-2)Man(a1-6)]Man(b1-4)GlcNAc(b1-4)GlcNAc
# Outline: as §1
# [3] = molecular target: Gal(a1-3)Gal(b1-4)GlcNAc(b1-3)GalNAc
# Outline: as §1
# [4] = molecular target: Gal(a1-3)Gal(b1-4)GlcNAc(b1-6)GalNAc
# Outline: as §1
# [5] = molecular target: Gal(a1-3)Gal(b1-4)[Fuc(a1-3)]GlcNAc
# Outline: as §1
# [6] = molecular target: Gal(a1-3)Gal(b1-4)[Fuc(a1-3)]GlcNAc(b1-2)Man(a1-3)[Gal(a1-3)Gal(b1-4)[Fuc(a1-3)]GlcNAc(b1-2)Man(a1-6)]Man(b1-4)GlcNAc(b1-4)GlcNAc
# Outline: as §1
# Gal(a1-3)GalNAc = molecular target: Gal(a1-3)GalNAc
# Outline: as §1
# [7] = molecular target: Gal(a1-3)[Gal(a1-4)]Gal(b1-4)GlcNAc
# Outline: as §1
# [8] = molecular target: Gal(a1-4)Gal(b1-3)GlcNAc(b1-2)Man(a1-3)[Gal(a1-4)Gal(b1-3)GlcNAc(b1-2)Man(a1-6)]Man(b1-4)GlcNAc(b1-4)GlcNAc
# Outline: as §1
# Gal(a1-4)Gal(b1-4)Glc = molecular target: Gal(a1-4)Gal(b1-4)Glc
# Outline: as §1
# Gal(a1-4)Gal(b1-4)GlcNAc = molecular target: Gal(a1-4)Gal(b1-4)GlcNAc
# Outline: as §1
# [9] = molecular target: Gal(a1-4)Gal(b1-4)GlcNAc(b1-2)Man(a1-3)[Gal(a1-4)Gal(b1-4)GlcNAc(b1-2)Man(a1-6)]Man(b1-4)GlcNAc(b1-4)GlcNAc
# Outline: as §1
# [10] = molecular target: Gal(a1-4)Gal(b1-4)GlcNAc(b1-3)Gal(b1-4)Glc
# Outline: as §1
# Gal(a1-4)GlcNAc = molecular target: Gal(a1-4)GlcNAc
# Outline: as §1
# Gal(a1-6)Glc = molecular target: Gal(a1-6)Glc
# Outline: as §1
# Gal(b1-2)Gal = molecular target: Gal(b1-2)Gal
# Outline: as §1
# Gal(b1-3)Gal = molecular target: Gal(b1-3)Gal
# Outline: as §1
# Gal(b1-3)Gal(b1-4)GlcNAc = molecular target: Gal(b1-3)Gal(b1-4)GlcNAc
# Outline: as §1
# Gal(b1-3)GalNAc = molecular target: Gal(b1-3)GalNAc
# Outline: as §1
# [11] = molecular target: Gal(b1-3)GalNAc(a1-3)[Fuc(a1-2)]Gal(b1-4)Glc
# Outline: as §1
# [12] = molecular target: Gal(b1-3)GalNAc(a1-3)[Fuc(a1-2)]Gal(b1-4)GlcNAc
# Outline: as §1
# Gal(b1-3)GalNAc(b1-3)Gal = molecular target: Gal(b1-3)GalNAc(b1-3)Gal
# Outline: as §1
# [13] = molecular target: Gal(b1-3)GalNAc(b1-3)Gal(a1-4)Gal(b1-4)Glc
# Outline: as §1
# [14] = molecular target: Gal(b1-3)GalNAc(b1-4)Gal(b1-4)Glc
# Outline: as §1
# [15] = molecular target: Gal(b1-3)GalNAc(b1-4)[Neu5Ac(a2-3)]Gal(b1-4)Glc
# Outline: as §1
# Gal(b1-3)GlcNAc = molecular target: Gal(b1-3)GlcNAc
# Outline: as §1
# [16] = molecular target: Gal(b1-3)GlcNAc(a1-3)Gal(b1-4)GlcNAc
# Outline: as §1
# [17] = molecular target: Gal(b1-3)GlcNAc(a1-6)Gal(b1-4)GlcNAc
# Outline: as §1
# Gal(b1-3)GlcNAc(b1-2)Man = molecular target: Gal(b1-3)GlcNAc(b1-2)Man
# Outline: as §1
# [18] = molecular target: Gal(b1-3)GlcNAc(b1-2)Man(a1-3)[Gal(b1-3)GlcNAc(b1-2)Man(a1-6)]Man(b1-4)GlcNAc(b1-4)GlcNAc
# Outline: as §1
# [19] = molecular target: Gal(b1-3)GlcNAc(b1-2)Man(a1-3)[Gal(b1-3)GlcNAc(b1-2)Man(a1-6)]Man(b1-4)GlcNAc(b1-4)[Fuc(a1-6)]GlcNAc
# Outline: as §1
# [20] = molecular target: Gal(b1-3)GlcNAc(b1-2)Man(a1-3)[GlcNAc(b1-4)][Gal(b1-3)GlcNAc(b1-2)Man(a1-6)]Man(b1-4)GlcNAc(b1-4)GlcNAc
# Outline: as §1
# [21] = molecular target: Gal(b1-3)GlcNAc(b1-2)[Gal(b1-3)GlcNAc(b1-6)]Man(a1-6)[Gal(b1-3)GlcNAc(b1-2)Man(a1-3)]Man(b1-4)GlcNAc(b1-4)GlcNAc
# Outline: as §1
# [22] = molecular target: Gal(b1-3)GlcNAc(b1-3)Gal(b1-3)GlcNAc
# Outline: as §1
# [23] = molecular target: Gal(b1-3)GlcNAc(b1-3)Gal(b1-4)Glc
# Outline: as §1
# [24] = molecular target: Gal(b1-3)GlcNAc(b1-3)Gal(b1-4)GlcNAc
# Outline: as §1
# [25] = molecular target: Gal(b1-3)GlcNAc(b1-3)Gal(b1-4)GlcNAc(b1-2)Man(a1-3)[Gal(b1-3)GlcNAc(b1-3)Gal(b1-4)GlcNAc(b1-2)Man(a1-6)]Man(b1-4)GlcNAc(b1-4)GlcNAc
# Outline: as §1
# [26] = molecular target: Gal(b1-3)GlcNAc(b1-3)Gal(b1-4)GlcNAc(b1-2)[Gal(b1-3)GlcNAc(b1-3)Gal(b1-4)GlcNAc(b1-6)]Man(a1-6)[Gal(b1-3)GlcNAc(b1-3)Gal(b1-4)GlcNAc(b1-2)Man(a1-3)]Man(b1-4)GlcNAc(b1-4)[Fuc(a1-6)]GlcNAc
# Outline: as §1
# [27] = molecular target: Gal(b1-3)GlcNAc(b1-3)Gal(b1-4)GlcNAc(b1-3)Gal(b1-4)GlcNAc(b1-2)[Gal(b1-3)GlcNAc(b1-3)Gal(b1-4)GlcNAc(b1-3)Gal(b1-4)GlcNAc(b1-6)]Man(a1-6)[Gal(b1-3)GlcNAc(b1-3)Gal(b1-4)GlcNAc(b1-3)Gal(b1-4)GlcNAc(b1-2)Man(a1-3)]Man(b1-4)GlcNAc(b1-4)[Fuc(a1-6)]GlcNAc
# Outline: as §1
# [28] = molecular target: Gal(b1-3)GlcNAc(b1-3)Gal(b1-4)GlcNAc(b1-6)[Gal(b1-3)GlcNAc(b1-3)]Gal(b1-4)Glc
# Outline: as §1
# [29] = molecular target: Gal(b1-3)GlcNAc(b1-3)Gal(b1-4)[Fuc(a1-3)]GlcNAc
# Outline: as §1
# [30] = molecular target: Gal(b1-3)GlcNAc(b1-3)Gal(b1-4)[Fuc(a1-3)]GlcNAc(b1-6)[Gal(b1-3)GlcNAc(b1-3)]Gal(b1-4)Glc
# Outline: as §1
# [31] = molecular target: Gal(b1-3)GlcNAc(b1-3)GalNAc
# Outline: as §1
# [32] = molecular target: Gal(b1-3)GlcNAc(b1-6)Gal(b1-4)GlcNAc
# Outline: as §1
binder,measurement,setting,value
"XTP3-B-MRH1 (Homo sapiens), Q96DZ1 (protein) LLEPLFKQSSCSYRIESYWTYEVCHGKHIRQYHEEKETGQKINIHEYYLGNMLAKNLLFEKEREAEEKEKSNEIPTKNIEGQMTPYYPVGMGNGTPCSLKQNRPRSSTVMYICHPESKHEILSVAEVTTCEYEVVILTPLLCSHPKYRFRA",glycan array binding signal (z-score),Gal(a1-3)Gal(b1-4)GlcNAc,0.128
same,glycan array binding signal (z-score),[1],-0.95
same,glycan array binding signal (z-score),[2],-0.041
same,glycan array binding signal (z-score),[3],0.873
same,glycan array binding signal (z-score),[4],1.2
same,glycan array binding signal (z-score),[5],0.562
same,glycan array binding signal (z-score),[6],2.03
same,glycan array binding signal (z-score),Gal(a1-3)GalNAc,0.362
same,glycan array binding signal (z-score),[7],-0.853
same,glycan array binding signal (z-score),[8],-0.616
same,glycan array binding signal (z-score),Gal(a1-4)Gal(b1-4)Glc,2.03
same,glycan array binding signal (z-score),Gal(a1-4)Gal(b1-4)GlcNAc,0.465
same,glycan array binding signal (z-score),[9],-0.449
same,glycan array binding signal (z-score),[10],-0.086
same,glycan array binding signal (z-score),Gal(a1-4)GlcNAc,-0.058
same,glycan array binding signal (z-score),Gal(a1-6)Glc,-0.507
same,glycan array binding signal (z-score),Gal(b1-2)Gal,1.1
same,glycan array binding signal (z-score),Gal(b1-3)Gal,0.294
same,glycan array binding signal (z-score),Gal(b1-3)Gal(b1-4)GlcNAc,0.861
same,glycan array binding signal (z-score),Gal(b1-3)GalNAc,-0.634
same,glycan array binding signal (z-score),[11],-0.458
same,glycan array binding signal (z-score),[12],1.11
same,glycan array binding signal (z-score),Gal(b1-3)GalNAc(b1-3)Gal,-0.305
same,glycan array binding signal (z-score),[13],-1.21
same,glycan array binding signal (z-score),[14],0.299
same,glycan array binding signal (z-score),[15],-0.533
same,glycan array binding signal (z-score),Gal(b1-3)GlcNAc,-0.468
same,glycan array binding signal (z-score),[16],1.09
same,glycan array binding signal (z-score),[17],1.46
same,glycan array binding signal (z-score),Gal(b1-3)GlcNAc(b1-2)Man,-0.297
same,glycan array binding signal (z-score),[18],-0.125
same,glycan array binding signal (z-score),[19],0.47
same,glycan array binding signal (z-score),[20],-0.558
same,glycan array binding signal (z-score),[21],0.132
same,glycan array binding signal (z-score),[22],-1.08
same,glycan array binding signal (z-score),[23],0.543
same,glycan array binding signal (z-score),[24],-1.16
same,glycan array binding signal (z-score),[25],0.941
same,glycan array binding signal (z-score),[26],1.95
same,glycan array binding signal (z-score),[27],0.617
same,glycan array binding signal (z-score),[28],-0.804
same,glycan array binding signal (z-score),[29],-0.846
same,glycan array binding signal (z-score),[30],-0.876
same,glycan array binding signal (z-score),[31],-0.229
same,glycan array binding signal (z-score),[32],0.173

# Reformatted bar-delimited: part of the list above
binder | measurement | setting | value
XTP3-B-MRH1 (Homo sapiens), Q96DZ1 (protein) LLEPLFKQSSCSYRIESYWTYEVCHGKHIRQYHEEKETGQKINIHEYYLGNMLAKNLLFEKEREAEEKEKSNEIPTKNIEGQMTPYYPVGMGNGTPCSLKQNRPRSSTVMYICHPESKHEILSVAEVTTCEYEVVILTPLLCSHPKYRFRA | glycan array binding signal (z-score) | Gal(b1-3)Gal | 0.294
same | glycan array binding signal (z-score) | [21] | 0.132
